Results on nine targets are retold here after the supplement of paper PMC12819154, “High-throughput peptide-centric local stability assay extends protein–ligand identification to membrane proteins, tissues and bacteria” (Nature Structural & Molecular Biology, 2025).

Chains of the proteins cited; added tags and fusions are not shown. Lines headed by an entry give the natural chain unless they say otherwise; changes in a name come on top.
UniProt O75663: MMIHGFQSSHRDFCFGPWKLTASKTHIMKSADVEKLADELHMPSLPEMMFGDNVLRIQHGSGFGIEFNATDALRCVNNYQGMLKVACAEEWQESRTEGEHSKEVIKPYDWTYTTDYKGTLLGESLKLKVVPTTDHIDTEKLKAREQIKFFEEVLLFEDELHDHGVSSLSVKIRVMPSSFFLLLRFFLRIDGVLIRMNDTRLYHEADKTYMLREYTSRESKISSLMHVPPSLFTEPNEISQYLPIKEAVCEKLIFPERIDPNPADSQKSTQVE
UniProt O95861: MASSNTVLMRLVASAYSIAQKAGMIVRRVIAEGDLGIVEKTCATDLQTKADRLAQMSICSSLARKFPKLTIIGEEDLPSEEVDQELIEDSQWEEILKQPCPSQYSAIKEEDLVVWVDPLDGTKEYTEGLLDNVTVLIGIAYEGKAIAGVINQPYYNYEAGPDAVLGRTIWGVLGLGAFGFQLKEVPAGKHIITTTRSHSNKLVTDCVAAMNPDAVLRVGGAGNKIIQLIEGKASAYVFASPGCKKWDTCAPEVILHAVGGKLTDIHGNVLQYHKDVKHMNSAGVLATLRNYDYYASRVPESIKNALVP
UniProt O95365: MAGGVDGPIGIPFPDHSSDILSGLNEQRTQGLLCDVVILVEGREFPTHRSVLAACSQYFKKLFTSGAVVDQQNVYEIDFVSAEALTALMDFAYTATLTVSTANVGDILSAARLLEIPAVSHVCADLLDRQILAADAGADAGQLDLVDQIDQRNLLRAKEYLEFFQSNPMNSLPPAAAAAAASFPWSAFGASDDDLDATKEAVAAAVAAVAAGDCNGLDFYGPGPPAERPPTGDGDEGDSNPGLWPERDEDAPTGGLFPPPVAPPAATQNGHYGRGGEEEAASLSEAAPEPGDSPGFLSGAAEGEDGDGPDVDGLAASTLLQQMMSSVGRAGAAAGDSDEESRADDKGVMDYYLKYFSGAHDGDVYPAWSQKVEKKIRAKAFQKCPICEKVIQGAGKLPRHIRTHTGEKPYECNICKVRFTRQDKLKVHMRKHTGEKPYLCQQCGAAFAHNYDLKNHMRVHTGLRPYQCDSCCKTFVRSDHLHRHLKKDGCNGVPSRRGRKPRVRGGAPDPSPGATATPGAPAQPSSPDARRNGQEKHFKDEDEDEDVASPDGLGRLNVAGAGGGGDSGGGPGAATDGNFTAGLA
UniProt O75844: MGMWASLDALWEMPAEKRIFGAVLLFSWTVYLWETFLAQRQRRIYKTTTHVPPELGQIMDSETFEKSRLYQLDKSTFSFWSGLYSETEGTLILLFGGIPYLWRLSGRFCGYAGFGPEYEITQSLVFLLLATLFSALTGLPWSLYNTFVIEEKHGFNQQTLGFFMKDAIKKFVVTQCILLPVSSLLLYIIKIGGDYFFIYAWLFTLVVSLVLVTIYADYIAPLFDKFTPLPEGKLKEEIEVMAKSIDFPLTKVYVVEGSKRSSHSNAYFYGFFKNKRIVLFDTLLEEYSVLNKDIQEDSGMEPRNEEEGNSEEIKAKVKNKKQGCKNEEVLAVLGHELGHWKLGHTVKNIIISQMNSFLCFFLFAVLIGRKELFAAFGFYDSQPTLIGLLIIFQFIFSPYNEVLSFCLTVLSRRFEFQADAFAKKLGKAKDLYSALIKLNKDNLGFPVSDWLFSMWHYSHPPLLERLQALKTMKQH
UniProt O95376: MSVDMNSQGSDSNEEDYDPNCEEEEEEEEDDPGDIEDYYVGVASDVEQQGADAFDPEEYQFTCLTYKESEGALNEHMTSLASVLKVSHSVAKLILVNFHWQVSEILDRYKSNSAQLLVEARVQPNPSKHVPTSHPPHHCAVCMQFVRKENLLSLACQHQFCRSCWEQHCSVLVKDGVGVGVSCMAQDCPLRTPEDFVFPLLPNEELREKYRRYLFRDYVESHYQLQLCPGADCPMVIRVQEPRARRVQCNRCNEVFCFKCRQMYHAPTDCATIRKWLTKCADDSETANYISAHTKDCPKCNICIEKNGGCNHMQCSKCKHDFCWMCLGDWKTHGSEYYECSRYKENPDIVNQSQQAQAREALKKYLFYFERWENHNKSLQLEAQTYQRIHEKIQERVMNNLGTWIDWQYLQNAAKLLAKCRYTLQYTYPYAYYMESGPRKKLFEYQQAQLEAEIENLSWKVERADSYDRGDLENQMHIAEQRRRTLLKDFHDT
UniProt P00374: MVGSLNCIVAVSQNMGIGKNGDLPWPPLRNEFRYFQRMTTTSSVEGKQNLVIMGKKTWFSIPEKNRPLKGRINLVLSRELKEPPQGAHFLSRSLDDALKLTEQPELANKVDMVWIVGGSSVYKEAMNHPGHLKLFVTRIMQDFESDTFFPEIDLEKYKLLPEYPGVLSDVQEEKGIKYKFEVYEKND
UniProt O95232: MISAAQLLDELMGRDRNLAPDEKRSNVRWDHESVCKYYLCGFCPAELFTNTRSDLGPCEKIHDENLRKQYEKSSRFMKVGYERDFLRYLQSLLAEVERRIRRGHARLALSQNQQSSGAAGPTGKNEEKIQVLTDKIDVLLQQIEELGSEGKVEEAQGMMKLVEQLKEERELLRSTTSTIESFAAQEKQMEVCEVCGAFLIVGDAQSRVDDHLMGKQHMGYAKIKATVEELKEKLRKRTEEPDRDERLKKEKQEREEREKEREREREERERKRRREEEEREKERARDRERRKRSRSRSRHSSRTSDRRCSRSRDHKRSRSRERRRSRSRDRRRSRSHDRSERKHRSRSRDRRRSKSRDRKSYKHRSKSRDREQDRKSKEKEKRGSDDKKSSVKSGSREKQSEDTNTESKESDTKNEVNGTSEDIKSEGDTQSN
UniProt O75431: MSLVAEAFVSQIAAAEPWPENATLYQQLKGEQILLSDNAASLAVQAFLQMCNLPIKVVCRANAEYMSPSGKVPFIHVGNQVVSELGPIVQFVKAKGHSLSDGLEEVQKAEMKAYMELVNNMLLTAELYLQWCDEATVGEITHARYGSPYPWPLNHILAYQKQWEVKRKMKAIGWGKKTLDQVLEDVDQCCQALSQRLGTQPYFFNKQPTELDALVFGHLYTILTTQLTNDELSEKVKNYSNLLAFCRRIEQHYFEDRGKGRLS
UniProt O75530, whole entry, looked up: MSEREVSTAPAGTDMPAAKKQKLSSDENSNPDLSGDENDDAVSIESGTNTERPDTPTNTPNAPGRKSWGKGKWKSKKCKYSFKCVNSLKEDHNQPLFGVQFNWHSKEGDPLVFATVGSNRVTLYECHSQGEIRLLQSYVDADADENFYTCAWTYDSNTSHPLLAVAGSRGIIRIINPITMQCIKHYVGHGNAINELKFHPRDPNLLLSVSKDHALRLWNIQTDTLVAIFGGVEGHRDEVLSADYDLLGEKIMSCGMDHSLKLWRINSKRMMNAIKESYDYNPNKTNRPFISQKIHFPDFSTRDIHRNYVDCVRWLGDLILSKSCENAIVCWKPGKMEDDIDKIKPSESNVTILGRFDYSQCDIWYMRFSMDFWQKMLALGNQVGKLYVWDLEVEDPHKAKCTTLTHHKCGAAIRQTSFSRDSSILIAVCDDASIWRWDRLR

This is one part of the list. Small differences around the control level are noise.

Compound in this assay: Cc1nc(Nc2ncc(C(=O)Nc3c(C)cccc3Cl)s2)cc(N2CCN(CCO)CC2)n1 [dasatinib]
Put plainly: log2 fold change of tryptic peptide abundance, ligand vs vehicle (limited proteolysis) (log2 ratio); higher = more trypsin-susceptible (destabilized). The settings on record: ligand concentration: 5 uM; sample: K562 cleared lysate.
As to “TIPRL (peptide sequence: GTLLGESLKLK, peptide start residue: 118) (UniProt O75663)”, the log2 fold change was -1.07. Consider “BPNT1 (peptide sequence: NYDYYASR, peptide start residue: 290) (UniProt O95861)”, for which the log2 fold change is -0.317.

Regarding “ZBTB7A (peptide sequence: HFKDEDEDEDVASPDGLGR, peptide start residue: 537) (UniProt O95365)”, the log2 fold change is 0.488. In the case of “ZMPSTE24 (peptide sequence: DIQEDSGMEPR, peptide start residue: 293) (UniProt O75844)” it was -0.167; in that of “ARIH2 (peptide sequence: SCWEQHCSVLVK, peptide start residue: 163) (UniProt O95376)”, 0.129; in that of “DHFR (peptide sequence: YKFEVYEKND, peptide start residue: 178) (UniProt P00374)”, 0.306. The figure for “UniProt O95232 (peptide sequence: SDLGPCEKIHDENLR, peptide start residue: 53)” is -0.0977. The figure for “MTX2 (peptide sequence: RIEQHYFEDR, peptide start residue: 248) (UniProt O75431)” is -0.332; for “UniProt O75530 (peptide sequence: EVSTAPAGTDMPAAKK, peptide start residue: 5)” it is -0.214.
